Measured data: PubChem BioAssay AID504804 (Drosophila RNAi Screening Center, 2011)
Purpose: 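Fly genes whose loss lessens doxorubicin-driven cell death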 (primary screen). System: Drosophila Kc cells. Reagents: long dsRNA against Drosophila genes, 0.5 µg dsRNA per well. Duration: 96 h (48 h knock-down, then 48 h drug). Treatment: doxorubicin 5 µg/ml for 48 h, added 48 h after dsRNA. Detection: 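Viability measured as cellular ATP by luminescence after 48 h knock-down then 48 h doxorubicin at 5 µg/ml; unnormalised plate counts for each replicate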. Scale: raw ATP luminescence: higher = more viable cells, protection from doxorubicin. Hit rule: 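z-score of 2 or more over plate mean in both duplicates, retained only when retests and separate dsRNAs confirm the protection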.
The screen tested about 19,000 reagents; below is an unselected part of those that have a named target and a result. Of all reagents, 47 (0.25%) got an active call. 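Signals are raw, not normalised; exact z-scores behind calls not deposited; actives needed confirmation, so some wells reaching 2 SD are inactive.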 A number with no mark means an inactive call. The numbers tell different reagents against one gene apart.

tpr (tracheal-prostasin)
- raw ATP luminescence, replicate 1: 66283
- raw ATP luminescence, replicate 2: 77140

lz (lozenge)
- raw ATP luminescence, replicate 1: 3.92e5
- raw ATP luminescence, replicate 2: 3.75e5

CG10702
- raw ATP luminescence, replicate 1: 1.01e5
- raw ATP luminescence, replicate 2: 82507

CR14798 (pseudo)
- raw ATP luminescence, replicate 1: 55690
- raw ATP luminescence, replicate 2: 25150

P5cr-2 (Pyrroline-5-carboxylate reductase-like 2)
- raw ATP luminescence, replicate 1: 66580
- raw ATP luminescence, replicate 2: 54640

CG12116
- raw ATP luminescence, replicate 1: 39010
- raw ATP luminescence, replicate 2: 51250

Sos (Son of sevenless)
- raw ATP luminescence, replicate 1: 17373
- raw ATP luminescence, replicate 2: 84783

Icmt (Isoprenylcysteine carboxyl methyltransferase)
- raw ATP luminescence, replicate 1: 85630
- raw ATP luminescence, replicate 2: 74573

CG1637 #1
- raw ATP luminescence, replicate 1: 2.07e5
- raw ATP luminescence, replicate 2: 2.00e5

CG1637 #2
- raw ATP luminescence, replicate 1: 3.56e5
- raw ATP luminescence, replicate 2: 3.48e5

Snap24 (Synaptosomal-associated protein 24kDa)
- raw ATP luminescence, replicate 1: 53657
- raw ATP luminescence, replicate 2: 54847

CG15888
- raw ATP luminescence, replicate 1: 75240
- raw ATP luminescence, replicate 2: 66830

mRRF1 (mitochondrial ribosome recycling factor 1)
- raw ATP luminescence, replicate 1: 34307
- raw ATP luminescence, replicate 2: 42627

Hexo2 (Hexosaminidase 2)
- raw ATP luminescence, replicate 1: 47070
- raw ATP luminescence, replicate 2: 52960

A portion from the list above, as a working copy:
CG1637 #1
- raw ATP luminescence, replicate 1: 2.07e5
- raw ATP luminescence, replicate 2: 2.00e5

CG1637 #2
- raw ATP luminescence, replicate 1: 3.56e5
- raw ATP luminescence, replicate 2: 3.48e5

Snap24 (Synaptosomal-associated protein 24kDa)
- raw ATP luminescence, replicate 1: 53657
- raw ATP luminescence, replicate 2: 54847

CG15888
- raw ATP luminescence, replicate 1: 75240
- raw ATP luminescence, replicate 2: 66830

mRRF1 (mitochondrial ribosome recycling factor 1)
- raw ATP luminescence, replicate 1: 34307
- raw ATP luminescence, replicate 2: 42627

The listing continues.
Bace (beta-site APP-cleaving enzyme)
- raw ATP luminescence, replicate 1: 90837
- raw ATP luminescence, replicate 2: 91547

CG13185
- raw ATP luminescence, replicate 1: 72313
- raw ATP luminescence, replicate 2: 74470

Cyp4d14 (Cytochrome P450 4d14)
- raw ATP luminescence, replicate 1: 67650
- raw ATP luminescence, replicate 2: 74570

xmas-1 (retired record)
- raw ATP luminescence, replicate 1: 2.83e5
- raw ATP luminescence, replicate 2: 2.91e5

CG17211
- raw ATP luminescence, replicate 1: 65247
- raw ATP luminescence, replicate 2: 71883

Cyp12a4 (Cytochrome P450 12a4)
- raw ATP luminescence, replicate 1: 39800
- raw ATP luminescence, replicate 2: 36770

CG14219
- raw ATP luminescence, replicate 1: 3.22e5
- raw ATP luminescence, replicate 2: 3.22e5

CG15117
- raw ATP luminescence, replicate 1: 52957
- raw ATP luminescence, replicate 2: 64563

Mdh1 (retired record)
- raw ATP luminescence, replicate 1: 34033
- raw ATP luminescence, replicate 2: 77863

CycJ (Cyclin J)
- raw ATP luminescence, replicate 1: 40053
- raw ATP luminescence, replicate 2: 38087

CG13685
- raw ATP luminescence, replicate 1: 69780
- raw ATP luminescence, replicate 2: 76353

Ppt2 (Palmitoyl-protein Thioesterase 2)
- raw ATP luminescence, replicate 1: 1.07e5
- raw ATP luminescence, replicate 2: 88007

SoYb
- raw ATP luminescence, replicate 1: 43153
- raw ATP luminescence, replicate 2: 69020

png (pan gu)
- raw ATP luminescence, replicate 1: 44940
- raw ATP luminescence, replicate 2: 40460
